Experimental data from PubChem BioAssay AID485353 (National Center for Advancing Translational Sciences (NCATS), 2010).
Among all 330,000 compounds or so, about 610 (0.18%) were called active. The inconclusive results got no clear call from the source; some entries with a clear call stand among them for comparison. The call rests on the fitted dose curve. Potencies beside an inconclusive call are fits to weak or partial responses and may not hold up.
Potency means the concentration at half of the fitted maximal effect.

Assay: qHTS of Yeast-based Assay for SARS-CoV PLP; further: nearly all actives have a fitted effect of over 55% in size; on activity, positive = growth rescue: 0% is about no effect
Settings: S. cerevisiae expressing SARS-CoV PLpro; Potency: growth rescue; activity, positive = growth rescue: at 32.9 µM (top of the series)
In the case of CCOc1ccc(C(=O)O/N=C(\N)c2ccc([N+](=O)[O-])cc2)cc1OCC, the Potency is reported as inconclusive: 12.6 µM [activator, partial curve]. In the case of COC(=O)c1ccc(S(=O)(=O)c2ccccc2)c(N)c1, the Potency is reported as inconclusive: 3.55 µM [activator, single point]. In the case of COc1ccc2nc(C)cc(SCC(=O)N/N=C/c3c(OC)ccc4ccccc34)c2c1, the Potency is reported as inconclusive: 22.4 µM [activator, partial curve]. With Cc1ccc(S(=O)(=O)/N=c2\sccn2C)cc1 the Potency was inconclusive: 20 µM [activator, single point]. For COCCNC(=O)c1csc(Nc2cccc3ccccc23)n1, the Potency was inconclusive: 0.355 µM [activator, full curve, poor fit]. For COC(=O)/C=C1/S/C(=N/NC(=O)c2ccccc2OC)NC1=O, the Potency was inconclusive: 12.6 µM [activator, single point]. For CCN(Cc1ccccc1)C(=O)c1ccc(NC(=O)c2ccc(OC)cc2)cc1, the “activity, positive = growth rescue” value was inactive: 0.0144%. In the case of Cc1ccc(S(=O)(=O)NCCCCCC(N)=O)cc1, the Potency is reported as inconclusive: 4.47 µM [activator, single point]. In the case of COCCN(Cc1ccccc1)C(=S)Nc1ccc(OC(F)F)cc1, the Potency is reported as inconclusive: 20 µM [activator, single point]. For Cc1c(Cl)cccc1NC(=S)NCC(C)C, the Potency was inconclusive: 20 µM [activator, single point]. With O=C(CCCc1nc(-c2ccccc2)no1)Nc1cccnc1 the Potency was inconclusive: 4.47 µM [activator, single point]. In the case of O=C(NC1=NCCS1)c1ccc(C(F)(F)F)cc1, the “activity, positive = growth rescue” value is reported as inactive: -2.16%. In the case of CCOC(=O)Cn1cc(C(=O)C(=O)N2CCOCC2)c2ccccc21, the Potency is reported as inconclusive: 20 µM [activator, single point]. In the case of Cc1ccc(NC(=S)N2CCCC2)cc1, the “activity, positive = growth rescue” value is reported as inactive: -0.183%. With Clc1ccc(C2=NN(c3ccccc3)C(c3ccco3)C2)cc1 (configuration not stated) the “activity, positive = growth rescue” value was inactive: -0.98%. In the case of COc1cc(C)c(CNCCc2c[nH]c3ccccc23)cc1C, the “activity, positive = growth rescue” value is reported as inactive: 2.59%. For Cc1ccc(NC(=O)CC2SC3=NCCCN3C2=O)c(C)c1 (configuration not stated), the “activity, positive = growth rescue” value was inactive: -10.5%. For CC(C)(C)C(=O)NC(=S)Nc1ccc(F)cc1, the Potency was inconclusive: 20 µM [activator, single point]. In the case of Cc1cccc(NC(=S)NCC2CCCO2)c1 (configuration not stated), the Potency is reported as inconclusive: 10 µM [activator, single point]. In the case of COc1ccc(C)c2sc(NC(=O)C3=COCCO3)nc12, the “activity, positive = growth rescue” value is reported as inactive: -16.6%. For O=C(NNC1=C(C(=O)C(F)(F)F)CCC1)c1cccc(O)c1, the Potency was active: 14.1 µM. In the case of CCOc1ccc(C(=O)NC(=S)N2CCN(c3ccc(C(F)(F)F)cc3[N+](=O)[O-])CC2)cc1, the Potency is reported as inconclusive: 4.47 µM [activator, single point]. With COc1ccc(NS(=O)(=O)c2ccc(NC(=O)C(CCSC)NC(N)=O)cc2)cc1 (configuration not stated) the “activity, positive = growth rescue” value was inactive: 1.22%. In the case of CN(C)CCCNC(=S)N1CCn2c(nc3ccccc32)C1, the “activity, positive = growth rescue” value is reported as inactive: -11.7%. For COc1cccc(CN(C)C(=O)c2ccc3c(=O)n4c(nc3c2)CCC4)c1, the Potency was inconclusive: 10 µM [activator, partial curve]. With CCN1C(=NCCCOC(C)C)N[C@@H](CCc2ccccc2)[C@H](C(=O)NCCCOC(C)C)[C@H]1C the Potency was inconclusive: 20 µM [activator, single point]. In the case of O=C(Oc1cccc2cccnc12)c1cccc(-n2cnnn2)c1, the Potency is reported as inconclusive: 20 µM [activator, single point]. In the case of COC(=O)C1=C(C(=O)OC)C2(OC1c1ccccc1C)C(=O)c1ccccc1C2=O (configuration not stated), the Potency is reported as inconclusive: 20 µM [activator, single point]. With COc1ccc(C2Nc3ccccc3C(=O)N2c2ccc(C)cc2)cc1COc1ccccn1 (configuration not stated) the “activity, positive = growth rescue” value was inactive: -4.15%. In the case of CNC(=O)c1cc2cc(OC)ccc2n1CCN(C)C, the “activity, positive = growth rescue” value is reported as inactive: 2.99%. In the case of COc1cc(-c2nc3n(c(=O)c2C#N)CCS3)cc(OC)c1OC, the “activity, positive = growth rescue” value is reported as inactive: -1.88%. For COCCNC(=O)CN(Cc1ccc2c(c1)OCO2)C(=O)CCC(=O)Nc1nccs1, the Potency was inconclusive: 3.98 µM [activator, single point]. With COc1ccc(/C=N/Nc2cc(C)nc(-n3nc(C)cc3C)n2)cc1 the Potency was inconclusive: 4.47 µM [activator, single point]. In the case of CC1=C(C)C(=O)N(C(C)CCc2ccccc2)C1=O (configuration not stated), the Potency is reported as inconclusive: 20 µM [activator, single point]. For COc1cc(CCCN2CCNC[C@@H]2Cc2ccccc2)cc(OC)c1OC, the Potency was inconclusive: 12.6 µM [activator, single point]. In the case of O=C(Cn1cnc2c(nnn2Cc2ccc(F)cc2)c1=O)Nc1ccc2c(c1)OCCO2, the “activity, positive = growth rescue” value is reported as inactive: -1.55%. With CCOc1ccc(C(=O)NCCC(=O)N2CCC3(CC2)NCCc2[nH]cnc23)cc1OCC the Potency was inconclusive: 11.2 µM [activator, single point]. For O=C(Cc1ccccc1F)OCN1C(=O)c2ccccc2C1=O, the Potency was inconclusive: 20 µM [activator, single point]. For CC1CCN(Cc2nnnn2CCCC(=O)NCC(C)(C)N2CCOCC2)CC1, the Potency was inconclusive: 20 µM [activator, single point]. For CCOC(=O)CCCCC(=O)c1[nH]c(=O)[nH]c1CSc1nnc2c3ccccc3n(C(C)C)c2n1, the Potency was inconclusive: 14.1 µM [activator, single point]. With Cc1sc(NC(=O)c2ccccc2)c(C(=O)NC(C)C)c1C the Potency was inconclusive: 3.98 µM [activator, single point]. In the case of CCN(CC(=O)Nc1ccc(OC)cc1)C(=O)CN1C(=O)NC(C)(c2ccc3ccccc3c2)C1=O (configuration not stated), the Potency is reported as inconclusive: 17.8 µM [activator, single point]. For Cc1ccc(-n2nnnc2SCC(=O)N2CCN(C(=O)c3ccco3)CC2)c(C)c1, the Potency was inconclusive: 2.82 µM [activator, single point]. For O=C(Cc1cc(=O)[nH]c(=O)[nH]1)N1CCN(C(=O)c2ccco2)CC1, the Potency was active: 1.78 µM. With C/C=C(\C)C(=O)NCCN1C2=NC[C@H](C(C)C)N2C[C@@H]1Cc1ccc(OC)cc1 the “activity, positive = growth rescue” value was inactive: -0.453%. In the case of COc1ccc(-n2c(N)c(-c3nc4ccccc4n3C)sc2=S)cc1, the “activity, positive = growth rescue” value is reported as inactive: -2.1%. For Cc1ccc(Cn2c(N3CCN(CCO)CC3)nc3c2c(=O)n(C)c(=O)n3C)cc1, the Potency was inconclusive: 3.98 µM [activator, single point]. For CCN(CC(=O)NCc1ccc(F)cc1)Cc1nc2cc(Cl)ccc2c(=O)[nH]1, the Potency was inconclusive: 12.6 µM [activator, partial curve]. In the case of CCCOc1ccc(CSCCNC(=S)Nc2ccccc2)cc1, the Potency is reported as inconclusive: 20 µM [activator, single point]. In the case of COCCCNC(=O)Cn1c(=O)oc2cc(S(=O)(=O)N3CC(C)CC(C)C3)ccc21 (configuration not stated), the “activity, positive = growth rescue” value is reported as inactive: -1.08%. With Cc1nc(SCC(=O)OCc2ccccc2)c2c(=O)n(C)c(=O)n(C)c2n1 the Potency was inconclusive: 2.82 µM [activator, single point]. For CC(C)(Oc1ccc(Cl)cc1)C(=O)N1CCN(c2ccccn2)CC1, the Potency was inconclusive: 22.4 µM [activator, partial curve]. For Cc1cccc(-n2c(-c3csc(C)c3C)n[nH]c2=S)c1, the Potency was inconclusive: 20 µM [activator, single point]. For O=C(NC(=S)Nc1ccc(Br)c(Cl)c1)C1CC1, the Potency was inconclusive: 2.51 µM [activator, single point]. For CC(C)(C)NCC(O)c1cc(Cl)c(N)c(Cl)c1 (configuration not stated), the Potency was inconclusive: 0.355 µM [activator, full curve, poor fit]. For COc1ccc(O)c(/C=N/NC(=O)c2ccc(CSc3nc(C)cc(C)n3)cc2)c1, the Potency was inconclusive: 22.4 µM [activator, single point]. With Cn1c(CC(=O)Nc2ccc(F)cc2)c(Sc2ccccc2)c2ccccc21 the Potency was inconclusive: 4.47 µM [activator, single point]. With Cc1ccc(CC(=O)Nc2cc(C)ccn2)cc1 the Potency was inconclusive: 3.98 µM [activator, single point]. For CCOC(=O)c1ccccc1N1C(=O)C2Sc3[nH]c(=O)sc3C(/C=C/c3ccccc3)C2C1=O (configuration not stated), the Potency was inconclusive: 3.98 µM [activator, single point]. For Cc1cc(C)cc(NC(=O)C2C3C=CC4(O3)C2C(=O)N(CCCN2CCCC2)C4C(=O)NC2CCCC(C)C2C)c1 (configuration not stated), the “activity, positive = growth rescue” value was inactive: -4.73%. In the case of COc1ccc(CNC(=O)c2csc(Cc3ccccc3)n2)cc1, the Potency is reported as inconclusive: 11.2 µM [activator, single point]. In the case of CCOC(=O)C(=CNc1cccnc1Oc1ccc(C)c2c1CCC2)C(=O)OCC, the “activity, positive = growth rescue” value is reported as inactive: 1.55%. For O=C(N/N=C/c1cc(Br)ccc1O)C(c1ccncc1)N1CCOCC1 (configuration not stated), the Potency was inconclusive: 2 µM [activator, full curve]. In the case of N#CC1=C(N)Oc2cc3ccccc3cc2C1c1cccs1 (configuration not stated), the “activity, positive = growth rescue” value is reported as inactive: 0.095%. In the case of Cc1cc(C)nc(NC(=O)/C=C/c2cccs2)c1, the “activity, positive = growth rescue” value is reported as inactive: -13.9%. In the case of Cc1cc(C)n(CCC(=O)N2CCc3ccccc32)n1, the Potency is reported as inconclusive: 20 µM [activator, single point]. For CCOC(=O)c1oc2ccccc2c1COC(=O)CNC(=O)c1cccc(C)c1, the Potency was inconclusive: 0.398 µM [activator, full curve]. With O=C(CCN1C(=O)c2ccccc2C1=O)Oc1ccc2ccccc2c1 the “activity, positive = growth rescue” value was inactive: -6.05%. With Cc1nc(NN)nc(NCc2ccccc2)n1 the “activity, positive = growth rescue” value was inactive: 0.316%. In the case of COCC(C)N1CCC(Oc2ccc(C(=O)N3CCCC3)cc2)CC1 (configuration not stated), the Potency is reported as inconclusive: 20 µM [activator, single point]. In the case of CCOC(=O)c1c(NC(=O)CSc2ncccn2)sc2c1CCN(Cc1ccccc1)C2, the “activity, positive = growth rescue” value is reported as inactive: 9.65%. For CC1CCCCN1C(=O)C1CCCN(S(=O)(=O)c2cccc3nsnc23)C1 (configuration not stated), the Potency was inconclusive: 4.47 µM [activator, single point].
